{
  "source": "patent US11813276B2",
  "about": "“Compositions and methods for the treatment of AUD” (University of Southern California, priority 2020, dated 2023)",
  "key": {"[1]": {"test_system": "mice", "experiment": "Earlier ethanol drinking studies with avermectins given alone", "type": "in vivo", "description": "The altered function or expression of central nervous system (CNS) genes has long been considered a significant factor in contributing to the behavioral phenotype of alcoholism. By profiling gene expression in rodent strains undergoing multiple drinking paradigms, researchers have begun to identify potential candidate genes and pathways that may impart novel mechanistic information that drives the neurobiology of alcoholism."}, "[2]": {"test_system": "mice", "settings": "male and female mice; avermectin alone; cited from earlier work"}},
  "note": "For at least one compound, name, drawing or mass did not settle the structure.",
  "data": [
    {"smiles": "CO/N=C1\\C[C@]2(C[C@@H]3C[C@@H](C/C=C(\\C)C[C@@H](C)/C=C/C=C4\\CO[C@@H]5[C@H](O)C(C)=C[C@@H](C(=O)O3)[C@]45O)O2)O[C@H](/C(C)=C/C(C)C)[C@H]1C", "note": "[MOX, moxidectin]", "values": [
      {"measurement": "effect of chronic administration on the reduction of ethanol intake (tolerance)", "setting": "[1]", "value": "did not significantly alter the reduction of ethanol intake"},
      {"measurement": "ethanol intake", "setting": "[2]", "value": "significantly reduced ethanol intake"}
    ]}
  ]
}
